{
  "sequences": {"note": "Chains of the proteins cited; added tags and fusions are not shown.", "UniProt Q99NH2": "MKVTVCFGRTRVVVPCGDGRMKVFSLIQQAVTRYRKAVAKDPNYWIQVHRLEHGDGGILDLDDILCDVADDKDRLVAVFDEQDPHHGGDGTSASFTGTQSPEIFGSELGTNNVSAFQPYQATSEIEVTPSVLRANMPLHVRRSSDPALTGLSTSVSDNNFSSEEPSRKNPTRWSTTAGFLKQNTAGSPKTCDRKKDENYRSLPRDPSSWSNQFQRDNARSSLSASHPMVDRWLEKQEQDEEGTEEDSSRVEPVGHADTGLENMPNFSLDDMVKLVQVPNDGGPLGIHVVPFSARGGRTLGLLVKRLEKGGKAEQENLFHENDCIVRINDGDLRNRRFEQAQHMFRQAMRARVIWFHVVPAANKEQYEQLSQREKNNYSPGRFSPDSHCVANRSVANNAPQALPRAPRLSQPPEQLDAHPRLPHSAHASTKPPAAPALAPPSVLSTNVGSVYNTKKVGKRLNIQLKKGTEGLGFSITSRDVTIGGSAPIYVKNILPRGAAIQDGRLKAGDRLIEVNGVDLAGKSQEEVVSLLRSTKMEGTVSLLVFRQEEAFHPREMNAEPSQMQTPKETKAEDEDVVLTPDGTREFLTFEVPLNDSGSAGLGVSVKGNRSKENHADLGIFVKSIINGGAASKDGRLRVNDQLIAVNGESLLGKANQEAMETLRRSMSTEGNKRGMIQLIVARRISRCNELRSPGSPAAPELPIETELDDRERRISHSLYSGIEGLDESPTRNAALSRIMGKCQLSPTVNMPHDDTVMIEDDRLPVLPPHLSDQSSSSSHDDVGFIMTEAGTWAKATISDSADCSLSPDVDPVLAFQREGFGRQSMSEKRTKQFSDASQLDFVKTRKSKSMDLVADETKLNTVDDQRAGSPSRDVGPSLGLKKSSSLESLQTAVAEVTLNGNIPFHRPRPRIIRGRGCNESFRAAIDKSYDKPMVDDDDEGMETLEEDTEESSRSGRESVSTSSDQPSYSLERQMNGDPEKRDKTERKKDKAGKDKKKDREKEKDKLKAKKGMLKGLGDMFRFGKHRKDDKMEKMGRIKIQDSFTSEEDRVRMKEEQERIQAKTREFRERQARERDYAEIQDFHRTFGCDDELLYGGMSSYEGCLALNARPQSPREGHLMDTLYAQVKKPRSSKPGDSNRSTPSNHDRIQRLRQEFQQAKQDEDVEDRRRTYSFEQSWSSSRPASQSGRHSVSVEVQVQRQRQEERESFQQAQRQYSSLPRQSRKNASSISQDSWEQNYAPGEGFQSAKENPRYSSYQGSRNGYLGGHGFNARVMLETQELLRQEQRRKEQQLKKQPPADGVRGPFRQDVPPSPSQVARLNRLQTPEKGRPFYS"},
  "source": "paper PMC5814169",
  "biological_target": "endogenous Par3 (180 kD isoform) of NMuMG cells (mouse (endogenous in NMuMG)) (UniProt Q99NH2)",
  "experiment": "co-IP; NMuMG cells transfected with WT or K56R SIK; immunoprecipitation with a Par3-specific antibody (endogenous Par3); blot for SIK; cells treated with 5 ng/ml TGFβ or vehicle overnight",
  "note": "No constants are given. Whether binding was seen depends on the method and setting. Binding seen in cells or lysates may run through a third protein. Some results given as binding are weak or reduced against the parent protein; the word gives no strength.",
  "data": [
    {"binder": "SIK K56R, kinase-inactive mutant, transfected in NMuMG cells (enzyme, UniProt P57059 1-783) MVIMSEFSADPAGQGQGQQKPLRVGFYDIERTLGKGNFAVVKLARHRVTKTQVAIRIIDKTRLDSSNLEKIYREVQLMKLLNHPHIIKLYQVMETKDMLYIVTEFAKNGEMFDYLTSNGHLSENEARKKFWQILSAVEYCHDHHIVHRDLKTENLLLDGNMDIKLADFGFGNFYKSGEPLSTWCGSPPYAAPEVFEGKEYEGPQLDIWSLGVVLYVLVCGSLPFDGPNLPTLRQRVLEGRFRIPFFMSQDCESLIRRMLVVDPARRITIAQIRQHRWMRAEPCLPGPACPAFSAHSYTSNLGDYDEQALGIMQTLGVDRQRTVESLQNSSYNHFAAIYYLLLERLKEYRNAQCARPGPARQPRPRSSDLSGLEVPQEGLSTDPFRPALLCPQPQTLVQSVLQAEMDCELQSSLQWPLFFPVDASCSGVFRPRPVSPSSLLDTAISEEARQGPGLEEEQDTQESLPSSTGRRHTLAEVSTRLSPLTAPCIVVSPSTTASPAEGTSSDSCLTFSASKSPAGLSGTPATQGLLGACSPVRLASPFLGSQSATPVLQAQGGLGGAVLLPVSFQEGRRASDTSLTQGLKAFRQQLRKTTRTKGFLGLNKIKGLARQVCQAPASRASRGGLSPFHAPAQSPGLHGGAAGSREGWSLLEEVLEQQRLLQLQHHPAAAPGCSQAPQPAPAPFVIAPCDGPGAAPLPSTLLTSGLPLLPPPLLQTGASPVASAAQLLDTHLHIGTGPTALPAVPPPRLARLAPGCEPLGLLQGDCEMEDLMPCSLGTFVLVQ", "values": [
      {"measurement": "binding", "value": "binds"}
    ]}
  ]
}
